We go through eight molecules from paper PMC6523853.

Amino acid sequences for entries named in this document (tags omitted). A change or cut given only in a name is not applied to a line headed by its entry. Chains listed by the source or under a name are the forms on record and can include a tag or linker. Residues count along the entry.
F508del-4RK-CFTR (P13569, form named): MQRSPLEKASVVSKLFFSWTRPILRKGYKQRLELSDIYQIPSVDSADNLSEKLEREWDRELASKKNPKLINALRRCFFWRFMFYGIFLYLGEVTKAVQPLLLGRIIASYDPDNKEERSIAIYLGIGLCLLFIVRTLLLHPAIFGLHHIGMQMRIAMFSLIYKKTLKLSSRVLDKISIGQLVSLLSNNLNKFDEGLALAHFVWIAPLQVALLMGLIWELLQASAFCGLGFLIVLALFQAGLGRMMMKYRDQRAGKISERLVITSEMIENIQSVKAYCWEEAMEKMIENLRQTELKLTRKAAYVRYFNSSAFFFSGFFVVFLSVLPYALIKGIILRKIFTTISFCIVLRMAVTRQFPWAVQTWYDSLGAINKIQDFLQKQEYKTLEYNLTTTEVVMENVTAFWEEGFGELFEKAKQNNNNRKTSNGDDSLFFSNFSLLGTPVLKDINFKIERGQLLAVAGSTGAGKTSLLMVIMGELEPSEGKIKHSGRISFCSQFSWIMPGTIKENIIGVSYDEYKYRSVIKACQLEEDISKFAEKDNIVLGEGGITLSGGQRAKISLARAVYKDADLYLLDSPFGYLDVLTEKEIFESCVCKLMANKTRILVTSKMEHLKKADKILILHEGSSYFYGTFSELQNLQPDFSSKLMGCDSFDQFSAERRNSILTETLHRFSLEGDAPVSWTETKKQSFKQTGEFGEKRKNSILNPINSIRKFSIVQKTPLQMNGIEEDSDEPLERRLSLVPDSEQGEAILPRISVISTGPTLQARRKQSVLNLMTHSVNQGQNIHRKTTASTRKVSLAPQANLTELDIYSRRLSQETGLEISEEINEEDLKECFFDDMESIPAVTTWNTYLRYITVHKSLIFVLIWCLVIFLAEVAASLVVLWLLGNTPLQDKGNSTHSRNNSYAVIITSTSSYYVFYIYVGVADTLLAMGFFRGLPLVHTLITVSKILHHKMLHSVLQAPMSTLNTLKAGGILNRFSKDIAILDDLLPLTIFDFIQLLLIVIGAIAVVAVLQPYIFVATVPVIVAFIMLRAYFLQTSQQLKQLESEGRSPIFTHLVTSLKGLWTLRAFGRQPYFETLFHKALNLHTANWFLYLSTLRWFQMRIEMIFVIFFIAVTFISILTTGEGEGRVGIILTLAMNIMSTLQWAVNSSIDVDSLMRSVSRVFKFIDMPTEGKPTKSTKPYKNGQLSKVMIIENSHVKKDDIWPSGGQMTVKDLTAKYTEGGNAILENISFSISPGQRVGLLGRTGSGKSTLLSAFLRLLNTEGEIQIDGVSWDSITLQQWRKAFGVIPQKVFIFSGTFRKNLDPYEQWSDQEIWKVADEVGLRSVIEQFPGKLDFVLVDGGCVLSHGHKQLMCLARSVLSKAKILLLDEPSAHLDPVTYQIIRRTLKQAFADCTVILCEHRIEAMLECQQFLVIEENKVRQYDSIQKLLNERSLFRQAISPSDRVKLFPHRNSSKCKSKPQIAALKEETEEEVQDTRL
F508del-CFTR (P13569, form named): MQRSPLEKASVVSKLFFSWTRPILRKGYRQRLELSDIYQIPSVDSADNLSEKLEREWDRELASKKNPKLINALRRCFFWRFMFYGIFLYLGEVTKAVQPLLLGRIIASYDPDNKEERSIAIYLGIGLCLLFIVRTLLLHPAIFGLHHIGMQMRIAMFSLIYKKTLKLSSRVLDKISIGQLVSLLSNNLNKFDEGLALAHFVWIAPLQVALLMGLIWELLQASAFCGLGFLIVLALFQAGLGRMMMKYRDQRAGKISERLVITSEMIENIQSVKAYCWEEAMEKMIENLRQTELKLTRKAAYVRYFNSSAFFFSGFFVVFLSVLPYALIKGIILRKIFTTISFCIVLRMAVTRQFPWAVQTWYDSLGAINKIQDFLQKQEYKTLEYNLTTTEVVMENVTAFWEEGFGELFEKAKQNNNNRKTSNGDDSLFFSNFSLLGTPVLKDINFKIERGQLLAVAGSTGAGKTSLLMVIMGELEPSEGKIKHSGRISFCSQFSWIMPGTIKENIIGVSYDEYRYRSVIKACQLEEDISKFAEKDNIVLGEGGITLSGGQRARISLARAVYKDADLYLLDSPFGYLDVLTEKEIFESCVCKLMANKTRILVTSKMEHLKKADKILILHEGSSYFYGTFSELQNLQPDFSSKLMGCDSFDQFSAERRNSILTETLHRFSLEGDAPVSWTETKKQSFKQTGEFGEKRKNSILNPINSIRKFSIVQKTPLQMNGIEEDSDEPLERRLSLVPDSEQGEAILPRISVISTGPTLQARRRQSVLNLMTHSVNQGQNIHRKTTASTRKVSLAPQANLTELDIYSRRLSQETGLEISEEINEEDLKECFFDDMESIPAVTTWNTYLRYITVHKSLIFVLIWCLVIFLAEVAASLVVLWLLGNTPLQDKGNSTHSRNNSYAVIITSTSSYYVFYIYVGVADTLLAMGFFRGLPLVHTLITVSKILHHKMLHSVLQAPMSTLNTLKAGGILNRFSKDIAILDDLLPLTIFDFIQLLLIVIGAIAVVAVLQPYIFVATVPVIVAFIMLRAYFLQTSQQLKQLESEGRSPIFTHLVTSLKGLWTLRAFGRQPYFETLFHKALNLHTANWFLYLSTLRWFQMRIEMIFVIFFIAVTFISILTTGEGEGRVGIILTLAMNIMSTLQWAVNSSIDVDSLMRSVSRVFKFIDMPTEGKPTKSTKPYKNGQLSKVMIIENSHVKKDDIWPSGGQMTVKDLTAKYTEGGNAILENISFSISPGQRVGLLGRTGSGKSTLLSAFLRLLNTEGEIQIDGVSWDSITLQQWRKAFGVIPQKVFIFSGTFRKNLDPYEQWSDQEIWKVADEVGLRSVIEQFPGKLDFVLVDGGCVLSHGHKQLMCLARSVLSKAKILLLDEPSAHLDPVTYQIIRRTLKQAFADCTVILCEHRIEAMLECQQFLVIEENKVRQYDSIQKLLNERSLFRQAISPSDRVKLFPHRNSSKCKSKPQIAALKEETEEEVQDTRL
UniProt O14818: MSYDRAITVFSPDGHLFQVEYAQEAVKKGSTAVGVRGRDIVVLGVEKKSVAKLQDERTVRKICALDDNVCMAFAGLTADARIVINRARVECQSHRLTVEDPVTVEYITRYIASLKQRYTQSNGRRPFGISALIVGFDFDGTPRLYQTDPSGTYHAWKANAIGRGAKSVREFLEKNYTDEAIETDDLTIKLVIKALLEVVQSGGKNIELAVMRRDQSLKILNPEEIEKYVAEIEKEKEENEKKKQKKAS
UniProt P11142: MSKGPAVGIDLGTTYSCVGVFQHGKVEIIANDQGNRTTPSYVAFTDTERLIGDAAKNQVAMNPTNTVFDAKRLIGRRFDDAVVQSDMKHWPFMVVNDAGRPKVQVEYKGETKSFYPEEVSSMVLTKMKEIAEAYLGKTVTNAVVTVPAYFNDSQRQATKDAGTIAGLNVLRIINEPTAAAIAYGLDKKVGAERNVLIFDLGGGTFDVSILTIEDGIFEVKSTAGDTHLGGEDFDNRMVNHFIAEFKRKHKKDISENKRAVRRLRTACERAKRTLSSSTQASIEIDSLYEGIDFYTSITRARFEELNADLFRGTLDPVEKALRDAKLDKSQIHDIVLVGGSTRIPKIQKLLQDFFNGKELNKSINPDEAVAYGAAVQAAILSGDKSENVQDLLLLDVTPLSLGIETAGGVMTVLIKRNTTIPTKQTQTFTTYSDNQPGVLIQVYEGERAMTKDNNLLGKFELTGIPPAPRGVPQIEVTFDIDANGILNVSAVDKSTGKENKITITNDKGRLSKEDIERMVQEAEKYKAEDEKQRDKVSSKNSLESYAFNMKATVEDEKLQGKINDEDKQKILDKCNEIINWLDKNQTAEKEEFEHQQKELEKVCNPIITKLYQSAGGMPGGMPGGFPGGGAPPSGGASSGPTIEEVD
UniProt P04792: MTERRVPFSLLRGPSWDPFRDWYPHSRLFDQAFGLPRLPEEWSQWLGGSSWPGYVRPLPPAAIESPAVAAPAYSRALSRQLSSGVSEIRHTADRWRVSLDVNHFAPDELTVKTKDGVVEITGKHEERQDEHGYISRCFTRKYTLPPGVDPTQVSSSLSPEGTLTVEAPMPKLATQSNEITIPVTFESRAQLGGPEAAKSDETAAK
UniProt O60884: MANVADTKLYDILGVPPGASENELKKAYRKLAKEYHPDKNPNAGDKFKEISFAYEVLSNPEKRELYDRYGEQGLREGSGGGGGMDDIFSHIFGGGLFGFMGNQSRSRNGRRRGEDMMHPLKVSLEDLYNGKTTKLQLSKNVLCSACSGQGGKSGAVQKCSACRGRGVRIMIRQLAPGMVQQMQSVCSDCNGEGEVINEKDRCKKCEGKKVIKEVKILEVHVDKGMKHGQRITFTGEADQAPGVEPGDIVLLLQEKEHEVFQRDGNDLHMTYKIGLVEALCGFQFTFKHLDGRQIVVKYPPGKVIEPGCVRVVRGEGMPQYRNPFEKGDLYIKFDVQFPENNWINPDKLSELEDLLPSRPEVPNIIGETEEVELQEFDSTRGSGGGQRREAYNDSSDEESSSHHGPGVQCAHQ
UniProt P27824, residues 21-592: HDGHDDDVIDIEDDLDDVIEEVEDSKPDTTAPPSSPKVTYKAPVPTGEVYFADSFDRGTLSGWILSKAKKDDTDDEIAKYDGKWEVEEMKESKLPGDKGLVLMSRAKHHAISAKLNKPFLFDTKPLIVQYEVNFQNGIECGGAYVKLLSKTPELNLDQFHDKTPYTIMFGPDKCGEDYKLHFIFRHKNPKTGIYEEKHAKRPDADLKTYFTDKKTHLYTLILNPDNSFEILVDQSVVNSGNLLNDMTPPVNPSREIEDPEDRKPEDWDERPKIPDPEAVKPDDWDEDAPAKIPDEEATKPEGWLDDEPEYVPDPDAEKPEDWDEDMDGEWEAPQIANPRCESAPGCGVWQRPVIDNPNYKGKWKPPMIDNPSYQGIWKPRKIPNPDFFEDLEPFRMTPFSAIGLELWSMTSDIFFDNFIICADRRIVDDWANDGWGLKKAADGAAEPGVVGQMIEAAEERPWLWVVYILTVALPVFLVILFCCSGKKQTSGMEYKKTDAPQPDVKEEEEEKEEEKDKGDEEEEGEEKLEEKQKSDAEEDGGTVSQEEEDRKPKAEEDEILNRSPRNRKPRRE

Read-outs that look alike come from different tables or passages of the source. These are yes or no findings as the source states them, for the method shown. Binding seen in cells or lysates may run through a third protein. A yes stands for co-enrichment or nearness to the bait. Other partners may have been found.

Test in all cases: affinity purification with mass spectrometry; full-length CFTR immunoprecipitated with anti-CFTR 596 cross-linked to rProtein G agarose from whole-cell Triton lysates of CFBE41o− cells stably expressing the variant; cells incubated with the cleavable cross-linker DSP prior to lysis; overnight at 4 °C; parental CFBE41o− cells as background; LC-MS/MS, iBAQ
Assay [1] has as its target F508del-4RK-CFTR (UniProt P13569).
Assay [2] addresses F508del-CFTR (UniProt P13569).
The target of assay [3] is F508del-4RK-CFTR (UniProt P13569). This is another data set of the same source.
The target of assay [4] is F508del-CFTR (UniProt P13569). This is another data set of the same source.

With PSMA7 (from UniProt O14818 1-248), in the assay with F508del-4RK-CFTR [1], the binding result is “binds”.

For the molecule “heat shock cognate 71KDa protein (HSPA8/Hsp73) (from UniProt P11142 1-646)”, in the assay with F508del-CFTR [2], the binding entry is given as “binds”.

For HspB1 (from UniProt P04792 1-205), the binding entry in the assay with F508del-CFTR [2] and with F508del-4RK-CFTR [1] was “binds” each time.

Consider DNAJA2 (from UniProt O60884 1-412), for which the binding entry in the assay with F508del-CFTR [2] is listed as “binds”.

For calnexin (from UniProt P27824 21-592), the binding result in the assay with F508del-CFTR [2] is reported as “binds”.

B1: RFN14 (protein, UniProt Q9UBS8 1-474)
chain: MSSEDREAQEDELLALASIYDGDEFRKAESVQGGETRIYLDLPQNFKIFVSGNSNECLQNSGFEYTICFLPPLVLNFELPPDYPSSSPPSFTLSGKWLSPTQLSALCKHLDNLWEEHRGSVVLFAWMQFLKEETLAYLNIVSPFELKIGSQKKVQRRTAQASPNTELDFGGAAGSDVDQEEIVDERAVQDVESLSNLIQEILDFDQAQQIKCFNSKLFLCSICFCEKLGSECMYFLECRHVYCKACLKDYFEIQIRDGQVQCLNCPEPKCPSVATPGQVKELVEAELFARYDRLLLQSSLDLMADVVYCPRPCCQLPVMQEPGCTMGICSSCNFAFCTLCRLTYHGVSPCKVTAEKLMDLRNEYLQADEANKRLLDQRYGKRVIQKALEEMESKEWLEKNSKSCPCCGTPIEKLDGCNKMTCTGCMQYFCWICMGSLSRANPYKHFNDPGSPCFNRLFYAVDVDDDIWEDEVED
On to B1, for which, in the assay with F508del-4RK-CFTR [3], the binding result is recorded as “binds”.

B2: ERP44 (endoplasmic reticulum resident protein 44) (protein, UniProt Q9BS26 30-406)
chain: EITSLDTENIDEILNNADVALVNFYADWCRFSQMLHPIFEEASDVIKEEFPNENQVVFARVDCDQHSDIAQRYRISKYPTLKLFRNGMMMKREYRGQRSVKALADYIRQQKSDPIQEIRDLAEITTLDRSKRNIIGYFEQKDSDNYRVFERVANILHDDCAFLSAFGDVSKPERYSGDNIIYKPPGHSAPDMVYLGAMTNFDVTYNWIQDKCVPLVREITFENGEELTEEGLPFLILFHMKEDTESLEIFQNEVARQLISEKGTINFLHADCDKFRHPLLHIQKTPADCPVIAIDSFRHMYVFGDFKDVLIPGKLKQFVFDLHSGKLHREFHHGPDPTDTAPGEQAQDVASSPPESSFQKLAPSEYRYTLLRDRDEL
On to B2, for which the binding result with F508del-CFTR [4] and in the assay with F508del-4RK-CFTR [3] was “binds” in each case.

B3: DNAJC8 (protein, UniProt O75937 1-253)
chain: MAASGESGTSGGGGSTEEAFMTFYSEVKQIEKRDSVLTSKNQIERLTRPGSSYFNLNPFEVLQIDPEVTDEEIKKRFRQLSILVHPDKNQDDADRAQKAFEAVDKAYKLLLDQEQKKRALDVIQAGKEYVEHTVKERKKQLKKEGKPTIVEEDDPELFKQAVYKQTMKLFAELEIKRKEREAKEMHERKRQREEEIEAQEKAKREREWQKNFEESRDGRVDSWRNFQANTKGKKEKKNRTFLRPPKVKMEQRE
On to B3, for which, in the assay with F508del-CFTR [4], the binding entry is “binds”.
